1 molecule from US20230416357A1 (UCB, published 2023) can be followed below.

Results are given in words; binding and its absence hold for the method and conditions named. Some entries that bind do so weakly or less than the wild type.

This assay concerns the target T1, Human IL22 (human, UniProt Q9GZX6 34-179).
T1 sequence: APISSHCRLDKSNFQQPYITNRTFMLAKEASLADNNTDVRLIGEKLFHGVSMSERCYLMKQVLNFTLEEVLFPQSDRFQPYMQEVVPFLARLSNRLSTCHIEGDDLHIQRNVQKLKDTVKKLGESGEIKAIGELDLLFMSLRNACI
Nature of the assay: SPR Biacore T200; IL22 held by captured Fezakinumab. For orientation: In SPR one partner is held on a chip, and binding of the other changes the refractive index at the surface.

B1: IL22BP (receptor, UniProt Q969J5-2 22-231, looked up)
chain: TQSTHESLKPQRVQFQSRNFHNILQWQPGRALTGNSSVYFVQYKIYGQRQWKNKEDCWGTQELSCDLTSETSDIQEPYYGRVRAASAGSYSEWSMTPRFTPWWETKIDPPVMNITQVNGSLLVILHAPNLPYRYQKEKNVSIEDYYELLYRVFIINNSLEKEQKVYEGAHRAVEIEALTPHSSYCVVAEIYQPMLDRRSQRSEERCVEIP
With B1, the binding entry is “binds”.
